Data reported in PubChem BioAssay AID1487 (National Center for Advancing Translational Sciences (NCATS), 2009).
The list shows a part of the results. Further columns of the screen follow, without active or inactive calls. Most of these compounds were active or inconclusive in the main read-out, so they are no random draw. Words in brackets tell the shape of the fitted curve; partial curves, single points and poor fits give uncertain potencies.

Assay: qHTS Assay for Modulators of Lamin A Splicing
Conditions: HeLa LMNA splicing GFP/RFP minigene ratio, 48 h
Method in brief: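 S3 HeLa stable clones carrying a lamin A-EGFP splicing minigene plus DsRed2 were seeded at 600 cells/well in Opti-MEM with 2% FBS, pin-dosed and incubated 48 h at 37°C. Acumen cytometry (488 nm) gave the GFP/RFP total-intensity ratio.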

[1] = measured here: RFP viability control channel
[2] = measured here: GFP splicing reporter channel

## Fc1ccc(NC(=S)N2CCOCC2)cc1Cl
[1]
  AC50: 20 µM [rising, partial curve, poor fit]

## CCOc1ccc(NS(=O)(=O)c2ccc(NC(=O)c3cccnc3)c(OC)c2)cc1
[2]
  AC50: 0.355 µM [falling, full curve, poor fit]
[1]
  AC50: 0.0891 µM [falling, full curve]

## CCOC(=O)c1c(NC(=O)C2COc3ccccc3O2)sc(C)c1C (stereo not given)
[2]
  AC50: 22.4 µM [rising, single point]
[1]
  AC50: 25.1 µM [rising, single point]

## Cc1ccc(SCCC(=O)NCCSCc2ccccc2C)cc1
[2]
  AC50: 11.2 µM [rising, single point]
[1]
  AC50: 12.6 µM [rising, partial curve]

## CCOc1ccc(CNC(=O)CCCc2cn(C)c3ccccc23)cc1OC
[2]
  AC50: 0.0501 µM [falling, full curve]

## CN1C(=O)CSc2ccc(C(=O)O)cc21
[1]
  AC50: 0.1 µM [rising, full curve, poor fit]

## O=C(/C=C\c1cccs1)c1c(O)ccc2ccc(=O)oc12
[2]
  AC50: 8.91 µM [rising, partial curve, poor fit]
[1]
  AC50: 10 µM [rising, partial curve]

## N#C/C(=C\c1cc([N+](=O)[O-])ccc1Cl)C(N)=O
[2]
  AC50: 11.2 µM [falling, single point]

## COc1ccc(Cn2ccc3nc(C)c(C(=O)NCc4cccc(OC)c4)cc3c2=O)cc1
[1]
  AC50: 5.01 µM [rising, partial curve]

## FC(F)(F)C1=CC(c2ccccc2)=NCCN1
[2]
  AC50: 35.5 µM [rising, single point]
[1]
  AC50: 15.8 µM [rising, single point]

## Cc1sc2ncnc(SCC#N)c2c1C
[2]
  AC50: 31.6 µM [rising, single point]

## CCCc1nc2ccccc2c(C(=O)OCC(=O)Nc2ccc(S(=O)(=O)N3CCOCC3)cc2)c1CC
[2]
  AC50: 15.8 µM [rising, single point]
[1]
  AC50: 22.4 µM [rising, single point]

## Cc1nn(-c2ccccc2)cc1C(=S)Nc1ccccc1
[2]
  AC50: 15.8 µM [rising, single point]
[1]
  AC50: 35.5 µM [rising, single point]

## Brc1ccc(NCc2cccc3ccccc23)nc1
[2]
  AC50: 20 µM [rising, partial curve]
[1]
  AC50: 35.5 µM [rising, single point]

## CCn1cc2c(n1)-c1c(oc(C(=O)Nc3cccc(C(F)(F)F)c3)c1C)CC2
[2]
  AC50: 35.5 µM [falling, single point]
[1]
  AC50: 35.5 µM [falling, single point]

## COCCCN(C(=S)Nc1cccc(Cl)c1)C(C)c1ccncc1 (stereo not given)
[1]
  AC50: 17.8 µM [rising, single point]

## CC(C)c1ccc(/C=N/NC(=O)c2nnn(-c3nonc3N)c2CSC2=NCCS2)cc1
[2]
  AC50: 22.4 µM [rising, partial curve, poor fit]
[1]
  AC50: 0.891 µM [rising, partial curve, poor fit]

## CN1CCc2cc3c(c4c2[C@H]1[C@H](O)c1ccccc1-4)OCO3
[1]
  AC50: 10 µM [rising, partial curve]

## CC(C)(C(N)=O)N1CCN(c2ncc(C(F)(F)F)cc2Cl)CC1
[1]
  AC50: 15.8 µM [rising, partial curve]

## O=C(CC1C(=O)N(c2ccc(Cl)cc2)C(=S)N1CCc1ccncc1)Nc1ccc(F)cc1 (stereo not given)
[2]
  AC50: 22.4 µM [falling, partial curve]
[1]
  AC50: 22.4 µM [falling, partial curve]

## CCOC(=O)c1c(C)oc2c1C(=O)c1ccccc1C2=O
[2]
  AC50: 12.6 µM [falling, partial curve]
[1]
  AC50: 5.62 µM [falling, full curve]

## c1ccc2c(c1)OCC(c1nnc3sc(-c4ccc5c(c4)OCO5)nn13)O2 (stereo not given)
[2]
  AC50: 5.62 µM [rising, single point]
[1]
  AC50: 5.62 µM [rising, single point]

## Cc1cn2c(=O)cc(COC(=O)c3cccc(NC(=O)c4ccccc4C)c3)nc2s1
[2]
  AC50: 0.00316 µM [rising, full curve, poor fit]

## Cc1ccc(-n2cccc2/C=C2\C(=N)N3N=C(c4ccco4)SC3=NC2=O)cc1
[2]
  AC50: 0.0398 µM [falling, full curve]

## CCC1C/C(=C\c2cccnc2)C(=O)/C(=C/c2cccnc2)C1 (stereo not given)
[1]
  AC50: 4.47 µM [rising, full curve]

## O=C(NCc1ccco1)c1ccc(CS(=O)(=O)Cc2ccc(Cl)cc2)o1
[2]
  AC50: 7.94 µM [rising, partial curve]

## COc1cc(C(=O)c2nccc3cc(OC)c(OC)cc23)c([N+](=O)[O-])cc1OC
[1]
  AC50: 3.98 µM [rising, single point]

## Cc1cc(C)c(S(=O)(=O)Nc2ccc(O)c(Sc3ncn[nH]3)c2)c(C)c1
[1]
  AC50: 35.5 µM [rising, single point]

## COCCCNC(=O)C1CCN(c2nc3ccc(C)cc3[nH]2)CC1
[2]
  AC50: 0.562 µM [rising, full curve]
[1]
  AC50: 0.794 µM [rising, full curve, poor fit]

## COCCN(Cc1nc(-c2ccc(C(F)(F)F)cc2)no1)C(C)C
[2]
  AC50: 2.82 µM [falling, partial curve]

## COc1ccc(/C=N\NC(=O)c2c(C)nc3ccc(Br)cn23)cc1
[2]
  AC50: 1.26 µM [rising, full curve]
[1]
  AC50: 1.78 µM [rising, full curve]

## C/C(=N\NC(=O)OC(C)(C)C)c1ccc(-n2ccnc2)cc1
[2]
  AC50: 0.00398 µM [rising, full curve, poor fit]

## O=C(c1ccc(Cl)cc1)c1cnc(Nc2ccccc2Cl)s1
[2]
  AC50: 17.8 µM [falling, single point]
[1]
  AC50: 28.2 µM [falling, single point]

## CC1(C)NC(=O)N(c2ccc([N+](=O)[O-])c(C(F)(F)F)c2)C1=O
[2]
  AC50: 2 µM [falling, full curve, poor fit]
[1]
  AC50: 1.78 µM [falling, full curve, poor fit]

## CCCCCCc1ccc(O)cc1O
[2]
  AC50: 0.562 µM [falling, full curve]

## CC(C)OC(=O)c1ccc(NC(=O)CSc2nc3ncccc3[nH]2)cc1
[2]
  AC50: 3.98 µM [falling, partial curve]
[1]
  AC50: 0.00501 µM [falling, full curve, poor fit]

## O=C(c1nsc(Cl)c1Cl)N1CCCCC1
[2]
  AC50: 31.6 µM [rising, single point]

## CC1CCN(C(=O)COC(=O)c2ccc3c(c2)OCO3)CC1
[1]
  AC50: 0.562 µM [falling, full curve, poor fit]

## COc1cc2c(cc1OC)CN(c1ccc(-c3ccccc3OC)nn1)CC2
[2]
  AC50: 11.2 µM [rising, single point]
[1]
  AC50: 31.6 µM [rising, single point]

## CC(C)c1cnc2c(c1SCC(=O)Nc1cccc(F)c1)c(=O)n(C)c(=O)n2C
[2]
  AC50: 0.447 µM [rising, full curve, poor fit]
[1]
  AC50: 0.398 µM [rising, full curve, poor fit]

## CC1Cc2ccccc2N1Cc1nc2cc(C(F)(F)F)ccc2c(=O)[nH]1 (stereo not given)
[2]
  AC50: 12.6 µM [falling, partial curve]
[1]
  AC50: 25.1 µM [falling, partial curve]

## CC1CCCCN1C(=O)c1ccc(C(=O)N2CCCCC2C)cc1 (stereo not given)
[2]
  AC50: 20 µM [rising, single point]

## O=C(CN1C(=O)C2CC=CCC2C1=O)Nc1ccc(-c2nnc3n2CCCCC3)cc1 (stereo not given)
[1]
  AC50: 0.00224 µM [falling, full curve, poor fit]

## Cc1cc(Nc2ccc(Cl)cc2)nc(NCc2ccccc2)n1
[2]
  AC50: 15.8 µM [rising, partial curve]
[1]
  AC50: 17.8 µM [rising, partial curve]

## CS(=O)(=O)N1CCN(c2ccc([N+](=O)[O-])cc2F)CC1
[2]
  AC50: 22.4 µM [falling, partial curve, poor fit]
[1]
  AC50: 31.6 µM [falling, partial curve, poor fit]

## COc1ccc(/C=C/S(=O)(=O)NCc2ccccc2)cc1OC
[1]
  AC50: 4.47 µM [falling, single point]

## CCCN(CCC)S(=O)(=O)c1ccc(C(=O)Nc2sc3c(c2C(=O)OC)CCN(CC)C3)cc1
[2]
  AC50: 20 µM [falling, partial curve, poor fit]

## CC12CCC(C(=O)N3CCCc4ccccc43)(CC1=O)C2(C)C (stereo not given)
[2]
  AC50: 35.5 µM [rising, single point]
[1]
  AC50: 22.4 µM [rising, single point]

## COc1ccccc1N(CC(=O)Nc1ccc2c(c1)OCO2)S(=O)(=O)c1ccccc1
[2]
  AC50: 20 µM [rising, partial curve, poor fit]
[1]
  AC50: 20 µM [rising, partial curve, poor fit]

## CCCCn1c(N)c(S(=O)(=O)c2ccc(C)cc2)c2nc3ccccc3nc21
[2]
  AC50: 31.6 µM [rising, single point]
[1]
  AC50: 35.5 µM [rising, single point]

## O=C(CN1CC[n+]2c(-c3cccs3)csc21)c1ccc(Br)cc1
[1]
  AC50: 35.5 µM [rising, single point]

## COc1cc(CN2CCCC(C(=O)c3ccc4c5c(cccc35)CC4)C2)cc(OC)c1O (stereo not given)
[2]
  AC50: 1.12 µM [falling, partial curve]

## O=C(NCCc1ccc(Cl)cc1)C(=O)NCC(c1ccco1)S(=O)(=O)c1ccc(Cl)cc1 (stereo not given)
[1]
  AC50: 10 µM [falling, partial curve]

## CC(C)C(=O)N1CCN(c2nc(-c3ccc(Cl)cc3)cs2)CC1
[2]
  AC50: 0.355 µM [rising, full curve, poor fit]
